Measured values: paper PMC9324194
Results are given in words; binding and its absence hold for the method and conditions named. Some binding calls cover weakened binding; strength is not graded here.

Sequences of proteins named here, by UniProt entry; tags and fusion partners are left off.
UniProt P27695: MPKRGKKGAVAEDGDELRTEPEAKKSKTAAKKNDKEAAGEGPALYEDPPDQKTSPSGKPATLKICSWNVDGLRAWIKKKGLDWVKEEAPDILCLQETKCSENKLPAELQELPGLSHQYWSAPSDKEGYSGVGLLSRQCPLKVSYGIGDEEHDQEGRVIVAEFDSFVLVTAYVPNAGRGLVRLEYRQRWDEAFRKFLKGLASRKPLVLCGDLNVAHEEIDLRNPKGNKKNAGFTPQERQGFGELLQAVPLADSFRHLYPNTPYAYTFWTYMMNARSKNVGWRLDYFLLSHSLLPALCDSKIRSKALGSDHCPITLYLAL
UniProt P06748: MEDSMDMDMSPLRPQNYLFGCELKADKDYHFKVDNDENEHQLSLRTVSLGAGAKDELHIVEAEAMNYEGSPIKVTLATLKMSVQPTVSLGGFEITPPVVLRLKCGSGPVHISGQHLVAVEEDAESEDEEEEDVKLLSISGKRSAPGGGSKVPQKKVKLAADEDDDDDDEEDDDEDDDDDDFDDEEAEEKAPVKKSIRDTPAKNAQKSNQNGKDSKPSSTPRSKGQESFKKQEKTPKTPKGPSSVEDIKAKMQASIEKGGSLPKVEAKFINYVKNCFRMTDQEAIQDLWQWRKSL

Molecular target: Cy3-APE1 (full-length APE1 labelled with Cy3 at the N-terminus) (human) (UniProt P27695)
Test: FRET or BRET; FRET between donor-labelled abasic DNA oligonucleotide (500 nM) and acceptor-labelled APE1 (500 nM) in ternary mixtures with 4 μM unlabelled NPM1 pentamer; 20 mM potassium phosphate pH 7.0, 50 mM NaCl, 2 mM DTT, 10 mM EDTA; 20 °C; both purified

For “nucleophosmin (NPM1) (from UniProt P06748 1-294)”, the binding was “binds”.
